Experimental data reported in article PMC7469701.
Positions count from the first letter of the chain named. Numbers in names are those of the source. Results are given in words; binding and its absence hold for the method and conditions named. Binding seen in cells or lysates may run through a third protein. Some binding calls cover weakened binding; strength is not graded here. Tags and fused reporters may be left off the sequences shown.

T1: Csm2 subunit of the Streptococcus thermophilus type III-A Csm complex (StCsm), tagged (Streptococcus thermophilus)
T1 sequence: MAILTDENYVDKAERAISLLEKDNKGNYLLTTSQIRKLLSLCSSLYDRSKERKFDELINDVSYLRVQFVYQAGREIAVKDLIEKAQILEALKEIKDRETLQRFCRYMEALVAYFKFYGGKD

B1: Csm3 subunit of the Streptococcus thermophilus Csm complex (StCsm), wild type (protein, UniProt A0A0A7HIF0 1-220)
chain: MTFAKIKFSAQIRLETGLHIGGSDAFAAIGAIDSPVIKDPITNIPIIPGSSLKGKMRTLLAKVYNEKVAEKPSDDSDILSRLFGNSKDKRFKMGRLIFRDAFLSNADELDSLGVRSYTEVKFENTIDRITAEANPRQIERAIRNSTFDFELIYEITDENENQVEEDFKVIRDGLKLLELDYLGGSGSRGYGKVAFEKLKATTVFGNYDVKTLNELLTAEV
B2: Csm3 D33A variant (RNase-deficient) of the Streptococcus thermophilus Csm complex (protein, UniProt A0A0A7HIF0 1-220)
chain: B1 chain with D33A
B3: Cas10 subunit of the Streptococcus thermophilus Csm complex (StCsm), wild type (protein, UniProt A0A0A7HFE1 1-758)
chain: MKKEKIDLFYGALLHDIGKVIQRATGERKKHALVGADWFDEIADNQVISDQIRYHMANYQSDKLGNDHLAYITYIADNIASGVDRRQSNEESDEDASAKIWDTYTNQADIFNVFGAQTDKRYFKPTVLNLKSKPNFASATYEPFSKGDYAAIATRIKNELAEFEFNQAQIDSLLNLFEAILSFVPSSTNSKEIADISLAEHSRLTAAFALAIYDYLEDKGRHNYKEDLFTKASAFYEEEAFLLASFDLSGIQDFIYNIATSGAAKQLKARSLYLDFMSEYIADSLLDKLGLNRANLLYVGGGHAYFVLANTEKTVETLVQFEKDFNQFLLANFQTRLYVAFGWGSFAAKDIMSELNSPESYRQIYQKASRMISEKKISRYDYRTLMLLNRGGKSSERECEICHSVENLVSYHDQKVCDICRGLYQFSKEIAHDHFIITENEGLPIGPNACLKGVAFEKLSQESFSRVYVKNDYKAGTIKATHVFVGDYQCDEIHKYAALSKNEDGLGIKRLAVVRLDVDDLGAAFMAGFSRQGNGQYSTLSRSATFSRSMSLFFKVYINQFASDKKLSIIYAGGDDVFAIGSWQDIIAFTVELRQNFIKWTNGKLTLSAGIGLFADKTPISLMAHQTGELEEAAKGNEKDSISLFSSDYTFKFDRFITNVYDDKLEQIRYFFNHQDERGKNFIYKLIELLRNYESEEKMNVARLAYYLTRLEELTDKDERDKFKQFKKLFFKWYTNNESDRKEAELALLLYVYEIRKD
B4: Cas10 D16A variant (DNase-deficient) of the Streptococcus thermophilus Csm complex (protein, UniProt A0A0A7HFE1 1-758)
chain: B3 chain with D16A

Target: T1, Csm2 subunit of the Streptococcus thermophilus type III-A Csm complex (StCsm), tagged (Streptococcus thermophilus)
Experiment: pull-down + SEC; Cas/Csm proteins co-expressed with a synthetic CRISPR array in E. coli; intact ribonucleoprotein pulled down from the extract by the tagged Csm2 subunit as bait (Strep-chelating affinity, then size exclusion chromatography); subunit composition by Coomassie-stained gel

| binding | Binder |
| --- | --- |
| binds | B1 |
| binds | B2 |
| binds | B3 |
| binds | B4 |
